PubChem BioAssay AID1259264, Sanger Institute, 2017
Here is an unselected part of 794 deposited reagents. Over the whole deposit, 15 (1.9%) were called active. 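Calls rest on knock-down alone at z-score below -3; synergy scores with the three drugs do not decide them.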 A number with no mark means an inactive call. Viability is capped at 1. Not all columns of the deposit are shown. The record does not give: the amount of reagent, the time to read-out.

Assay: 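Kinase-wide knock-down to find genes that strengthen targeted drug effects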 (primary screen)
Cell system: CL40 human colorectal cancer cells
Reagents: siRNA pool against human genes
Conditions: DMSO, or an anchor drug: BYL719 at 1 µM, cetuximab at 5 µg/ml, or trametinib at 10 nM
Read-out: 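Viability as a fraction of non-targeting pool control (replicates averaged), control-based robust z-score, plus averaged synergy for each drug: BYL719 1 µM, cetuximab 5 µg/ml, trametinib 10 nM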
Reading the numbers: robust z-score, siRNA alone and viability, siRNA alone: higher = more viable cells
Rule for the call: 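Essential call: siRNA with no drug reaches a robust z under -3 (low cell count); drug synergy scores do not affect it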
Meaning of the calls: active = essential (lowers viability alone); inactive = not essential

For HIPK1 (GeneID 204851), what does the deposit list?
robust z-score, siRNA alone: -0.37; viability, siRNA alone (fraction of control): 0.935

What is on record for PIK3C3 (GeneID 5289)?
robust z-score, siRNA alone: 0.539; viability, siRNA alone (fraction of control): 1

With ATRX (GeneID 546), what was measured?
robust z-score, siRNA alone: 0.539; viability, siRNA alone (fraction of control): 1

For MAST4 (GeneID 375449), how do the results read?
robust z-score, siRNA alone: 0.539; viability, siRNA alone (fraction of control): 1

Which result is listed for IRAK3 (GeneID 11213)?
robust z-score, siRNA alone: -1.6; viability, siRNA alone (fraction of control): 0.847

What is on record for PLK4 (GeneID 10733)?
robust z-score, siRNA alone: -1.46; viability, siRNA alone (fraction of control): 0.857

How did the screen score LMTK2 (GeneID 22853)?
robust z-score, siRNA alone: 0.539; viability, siRNA alone (fraction of control): 1

For TEC (GeneID 7006), what does the deposit list?
robust z-score, siRNA alone: 0.539; viability, siRNA alone (fraction of control): 1

How did the screen score RPS6KA1 (GeneID 6195)?
robust z-score, siRNA alone: -1.11; viability, siRNA alone (fraction of control): 0.882

For PRKAG2 (GeneID 51422), how do the results read?
robust z-score, siRNA alone: 0.539; viability, siRNA alone (fraction of control): 1

With PRKAR2A (GeneID 5576), what does the deposit list?
robust z-score, siRNA alone: 0.539; viability, siRNA alone (fraction of control): 1

Which result is listed for PACSIN1 (GeneID 29993)?
robust z-score, siRNA alone: 0.37; viability, siRNA alone (fraction of control): 0.988

Reformatted: results already given.
Gene | robust z-score, siRNA alone | viability, siRNA alone (fraction of control)
RPS6KA1 (GeneID 6195) | -1.11 | 0.882
PRKAG2 (GeneID 51422) | 0.539 | 1
PRKAR2A (GeneID 5576) | 0.539 | 1
PACSIN1 (GeneID 29993) | 0.37 | 0.988

The results go on:
What is on record for CDK18 (GeneID 5129)?
robust z-score, siRNA alone: -3.21 (active); viability, siRNA alone (fraction of control): 0.731

With LMBR1 (GeneID 64327), what was measured?
robust z-score, siRNA alone: 0.465; viability, siRNA alone (fraction of control): 0.995

For XYLB (GeneID 9942), how do the results read?
robust z-score, siRNA alone: 0.386; viability, siRNA alone (fraction of control): 0.989

What did the screen give for DLG3 (GeneID 1741)?
robust z-score, siRNA alone: 0.539; viability, siRNA alone (fraction of control): 1

Which result is listed for IGF2R (GeneID 3482)?
robust z-score, siRNA alone: -0.19; viability, siRNA alone (fraction of control): 0.948

With PKMYT1 (GeneID 9088), what was measured?
robust z-score, siRNA alone: 0.382; viability, siRNA alone (fraction of control): 0.989

With DGKA (GeneID 1606), how do the results read?
robust z-score, siRNA alone: 0.356; viability, siRNA alone (fraction of control): 0.987

With AURKA (GeneID 6790), what was measured?
robust z-score, siRNA alone: -4.92 (active); viability, siRNA alone (fraction of control): 0.609

What is on record for CHUK (GeneID 1147)?
robust z-score, siRNA alone: -0.00493; viability, siRNA alone (fraction of control): 0.961

For HIPK4 (GeneID 147746), how do the results read?
robust z-score, siRNA alone: 0.539; viability, siRNA alone (fraction of control): 1

What did the screen give for SRC (GeneID 6714)?
robust z-score, siRNA alone: 0.539; viability, siRNA alone (fraction of control): 1

For PAPSS2 (GeneID 9060), what was measured?
robust z-score, siRNA alone: 0.151; viability, siRNA alone (fraction of control): 0.972

For PFKFB3 (GeneID 5209), how do the results read?
robust z-score, siRNA alone: 0.539; viability, siRNA alone (fraction of control): 1

Which result is listed for CHKB (GeneID 1120)?
robust z-score, siRNA alone: 0.539; viability, siRNA alone (fraction of control): 1

For LCK (GeneID 3932), what was measured?
robust z-score, siRNA alone: 0.539; viability, siRNA alone (fraction of control): 1

Which result is listed for FYN (GeneID 2534)?
robust z-score, siRNA alone: 0.087; viability, siRNA alone (fraction of control): 0.968
